Test results published in patent publication US7115607B2, “Substituted piperazinyl amides and methods of use” (Amgen Inc., priority 2001, dated 2006).
Some entries share one result that the patent states for a list of compounds.

Test system: Male C57BL/6 mice
Test: Fast-induced food intake in mice
Format: in vivo
Conditions: overnight-fasted male C57BL/6 mice; food weighed 1, 2 and 4 hr after replacement; compared with vehicle

SMILES | reduction in feeding (cumulative food intake): concentration at which it was caused [mg/kg]
CS(=O)(=O)Nc1ccccc1N1CCN(C(=O)[C@H](Cc2ccc(Cl)cc2)NC(=O)[C@@H]2Cc3ccccc3CN2)CC1 [Example 4, ((3S)(3-1,2,3,4-Tetrahydroisoquinolyl))-N-[(1S)-1-[(4-chlorophenyl)methyl]-2-(4-{2-[(methylsulfonyl)amino]phenyl}piperazinyl)-2-oxoethyl]carboxamide] | ≤ 30
CS(=O)(=O)Nc1ccccc1N1CCN(C(=O)[C@@H](Cc2ccc(Cl)cc2)NC(=O)[C@@H]2Cc3ccccc3CN2)CC1 [Example 67, N-[(1R)-1-[(4-Chlorophenyl)methyl]-2-(4-{2-[(methylsulfonyl)amino]phenyl}piperazinyl)-2-oxoethyl]((3S)(3-1,2,3,4-tetrahydroisoquinolyl))carboxamide] | ≤ 30
CN(C)C(=O)c1ccccc1N1CCN(C(=O)[C@@H](Cc2ccc(Cl)cc2)NC(=O)[C@@H]2Cc3ccccc3CN2)CC1 [Example 71, [2-(4-((2R)-2-[((3S)(3-1,2,3,4-Tetrahydroisoquinolyl))carbonylamino]-3-(4-chlorophenyl)propanoyl}piperazinyl)phenyl]-N,N-dimethylcarboxamide] | ≤ 30
